Results on one molecule are retold here after patent EP0105690A1, “Bleaching compositions” (THE PROCTER & GAMBLE COMPANY, priority 1982, dated 1984).

The data set in a line: Destruction of methylene blue dye in solution, percent transmittance (solution bleaching). Conditions: pH about 10.00, 37°C, 30 seconds, compared with m-chloroperoxybenzoic acid alone.

`O=S(=O)(Cl)c1cccc(S(=O)(=O)Cl)c1` [1,3-benzenedisulfonyl chloride]: the “destruction of the methylene blue dye (change in percent T)” value was “rapidly increases the destruction of the methylene blue dye” (6.25 x 10^-5 molar added to m-chloroperoxybenzoic acid 1.25 x 10^-4 molar) and “rapidly increases the destruction of the methylene blue dye” (added to benzoyl peroxide).
